Measurements reported in PubChem BioAssay AID1259308 (NCATS, 2017)
The deposit covers about 59,000 reagents; below is a part drawn at random. Over the whole deposit, about 1,510 (2.6%) were called active. 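Calls use total luciferase alone and ignore viability, so some active siRNAs may act by altering cell number.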 Reagents against one gene are numbered here. Not all columns of the deposit are shown.

Aim: 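Knock-downs that increase output of a recombinant reporter protein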 (primary screen)
Cells: human HEK293 embryonic kidney cells stably expressing firefly luciferase (HEK-CMV-Luc2-Hygro)
Reagent: single siRNA against human genes, 0.8 pmol siRNA per well
Time to read-out: 72 h
Measured: 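Luciferase light (ONE-Glo) measured on one replicate plate set and viability (CellTiter-Glo) on the other, scaled to a negative control siRNA, with robust z-scores and luciferase per cell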
Direction: total luciferase, z-score and total luciferase, % of control: higher = more reporter protein produced
Rule for the call: 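An siRNA counts as active if its total luciferase robust z-score exceeds 3; genes with two or more such siRNAs out of three were retested with fresh siRNAs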
Calls: active = raised luciferase; inactive = no rise

STARD13 #1
- total luciferase, z-score: -0.0329
- total luciferase, % of control: 81.2
- call: inactive

STARD13 #2
- total luciferase, z-score: 1.39
- total luciferase, % of control: 109
- call: inactive

STARD13 #3
- total luciferase, z-score: 0.126
- total luciferase, % of control: 84.4
- call: inactive

H4C5 #1
- total luciferase, z-score: -0.731
- total luciferase, % of control: 67.4
- call: inactive

H4C5 #2
- total luciferase, z-score: -0.554
- total luciferase, % of control: 70.9
- call: inactive

H4C5 #3
- total luciferase, z-score: 2.1
- total luciferase, % of control: 124
- call: inactive

NGFR #1
- total luciferase, z-score: -0.532
- total luciferase, % of control: 71.3
- call: inactive

NGFR #2
- total luciferase, z-score: -0.0683
- total luciferase, % of control: 80.5
- call: inactive

NGFR #3
- total luciferase, z-score: -0.667
- total luciferase, % of control: 68.6
- call: inactive

SPINT2 #1
- total luciferase, z-score: 0.588
- total luciferase, % of control: 93.6
- call: inactive

SPINT2 #2
- total luciferase, z-score: -0.715
- total luciferase, % of control: 67.7
- call: inactive

SPINT2 #3
- total luciferase, z-score: 0.825
- total luciferase, % of control: 98.3
- call: inactive

ZPBP #1
- total luciferase, z-score: -0.629
- total luciferase, % of control: 69.4
- call: inactive

ZPBP #2
- total luciferase, z-score: -0.633
- total luciferase, % of control: 69.3
- call: inactive

ZPBP #3
- total luciferase, z-score: 0.737
- total luciferase, % of control: 96.5
- call: inactive

APOE #1
- total luciferase, z-score: 0.142
- total luciferase, % of control: 84.7
- call: inactive

APOE #2
- total luciferase, z-score: -1.18
- total luciferase, % of control: 58.3
- call: inactive

APOE #3
- total luciferase, z-score: 0.449
- total luciferase, % of control: 90.8
- call: inactive

GDE1 #1
- total luciferase, z-score: -0.908
- total luciferase, % of control: 63.8
- call: inactive

GDE1 #2
- total luciferase, z-score: -2.01
- total luciferase, % of control: 41.9
- call: inactive

GDE1 #3
- total luciferase, z-score: -0.748
- total luciferase, % of control: 67
- call: inactive

ANAPC15 #1
- total luciferase, z-score: 0.411
- total luciferase, % of control: 90.1
- call: inactive

ANAPC15 #2
- total luciferase, z-score: 1.01
- total luciferase, % of control: 102
- call: inactive

ANAPC15 #3
- total luciferase, z-score: -0.273
- total luciferase, % of control: 76.5
- call: inactive

BEX2 #1
- total luciferase, z-score: 1.16
- total luciferase, % of control: 105
- call: inactive

BEX2 #2
- total luciferase, z-score: -1.01
- total luciferase, % of control: 61.9
- call: inactive

BEX2 #3
- total luciferase, z-score: 2.13
- total luciferase, % of control: 124
- call: inactive

SDCBP2 #1
- total luciferase, z-score: -1.51
- total luciferase, % of control: 51.9
- call: inactive

SDCBP2 #2
- total luciferase, z-score: -0.152
- total luciferase, % of control: 78.9
- call: inactive

SDCBP2 #3
- total luciferase, z-score: 1.28
- total luciferase, % of control: 107
- call: inactive

SLC1A7 #1
- total luciferase, z-score: -0.76
- total luciferase, % of control: 66.8
- call: inactive

SLC1A7 #2
- total luciferase, z-score: 0.794
- total luciferase, % of control: 97.7
- call: inactive

SLC1A7 #3
- total luciferase, z-score: 0.683
- total luciferase, % of control: 95.5
- call: inactive

Single entries from the entries so far:
Result of BEX2 #3 in “total luciferase, % of control”: 124
For “call”, H4C5 #1 has inactive
